Reference: the supplement of paper PMC9233669
Variants at the floor of the assay are shown more often than the library holds them.

Key:
biotinyl-Trp-oxazolone = experiment: self-aminoacylation, catalytic enhancement (BWO) (fold over background); higher = more active; k-Seq, kA / k0A0; sequences stand for … in GGGAAUGGAUCCACAUCUACGAAUUC…UUCACUGCAGACUUGACGAAGCUG
Procedure, shortened: (§1)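 Catalytic enhancement equals the median kA over the uncatalyzed rate, the latter read from the low-activity peak of a bimodal Gaussian fit. Values of kA came from fitting each sequence's fraction reacted to a pseudo-first-order model, with 1000 bootstraps. Reacted RNA was captured with streptavidin and quantified by triplicate qPCR and Illumina sequencing after 90 minutes at room temperature with 2–1250 μM biotinyl-aminoacyl-oxazolone and 0.43 μM mutagenized RNA pools bearing a 21-nt variable region.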

biotinyl-Leu-oxazolone = experiment: self-aminoacylation, catalytic enhancement (BLO) (fold over background); higher = more active; k-Seq, kA / k0A0; sequences stand for … in GGGAAUGGAUCCACAUCUACGAAUUC…UUCACUGCAGACUUGACGAAGCUG
Procedure, shortened: as §1

biotinyl-Val-oxazolone = experiment: self-aminoacylation, catalytic enhancement (BVO) (fold over background); higher = more active; k-Seq, kA / k0A0; sequences stand for … in GGGAAUGGAUCCACAUCUACGAAUUC…UUCACUGCAGACUUGACGAAGCUG
Procedure, shortened: as §1

biotinyl-Ile-oxazolone = experiment: self-aminoacylation, catalytic enhancement (BIO) (fold over background); higher = more active; k-Seq, kA / k0A0; sequences stand for … in GGGAAUGGAUCCACAUCUACGAAUUC…UUCACUGCAGACUUGACGAAGCUG
Procedure, shortened: as §1

biotinyl-Met-oxazolone = experiment: self-aminoacylation, catalytic enhancement (BMO) (fold over background); higher = more active; k-Seq, kA / k0A0; sequences stand for … in GGGAAUGGAUCCACAUCUACGAAUUC…UUCACUGCAGACUUGACGAAGCUG
Procedure, shortened: as §1

biotinyl-Phe-oxazolone = experiment: self-aminoacylation, catalytic enhancement (BFO) (fold over background); higher = more active; k-Seq, kA / k0A0; sequences stand for … in GGGAAUGGAUCCACAUCUACGAAUUC…UUCACUGCAGACUUGACGAAGCUG
Procedure, shortened: as §1

Sequence | self-aminoacylation (biotinyl-Trp-oxazolone) | self-aminoacylation (biotinyl-Leu-oxazolone) | self-aminoacylation (biotinyl-Val-oxazolone) | self-aminoacylation (biotinyl-Ile-oxazolone) | self-aminoacylation (biotinyl-Met-oxazolone) | self-aminoacylation (biotinyl-Phe-oxazolone)
ACUCACCUAGGUCAUCGGUUG [Fam2.2 aminoacylation ribozyme variant] | 1.72 | 1.19 | 1.3 | 1.42 | 1.19 | 1
ACUCACCUGGGUCAUCGGGUG [Fam2.2 aminoacylation ribozyme variant] | 8.05 | 5.61 | 4.66 | 4.86 | 4.83 | 38.9
ACUCACCUUGGUCAUCGGGUG [Fam2.2 aminoacylation ribozyme variant] | 9.04 | 7.85 | 5.78 | 4.9 | 6.92 | 37.8
AGGGUUGCUAAUAGUCGCAAG [Fam3.1 aminoacylation ribozyme variant] | 1.6 | 1.81 | 1.7 | 1.58 | 2.18 | 4.28
AGGUUUGCUAAUAGUCGCAAG [Fam3.1 aminoacylation ribozyme variant] | 6.61 | 1.41 | 1.38 | 1.56 | 1.75 | 22
AGGUUUGCUCAUAGUCGCAAG [Fam3.1 aminoacylation ribozyme variant] | 2.45 | 1.95 | 1.5 | 1.85 | 1.68 | 2.95
AGGUUUUCUAAUAGUCGCAAG [Fam3.1 aminoacylation ribozyme variant] | 1.62 | 1.79 | 1.52 | 1.86 | 1.59 | 2.83
AGUACCCUGGUCAUAGAGUGA [Fam2.1 aminoacylation ribozyme variant] | 4.67 | 4.1 | 2.48 | 2.33 | 4.15 | 15.4
AGUACCCUGGUCAUCGAGUCA [Fam2.1 aminoacylation ribozyme variant] | 0.393 | 0.769 | 0.869 | 0.862 | 0.856 | 0.555
AUACCUCAAACAAUCGGUCUG [Fam1A.1 aminoacylation ribozyme variant] | 1.52 | 0.934 | 0.92 | 0.977 | 0.919 | 4.92
AUACUUCAAACAACCGGUCUG [Fam1A.1 aminoacylation ribozyme variant] | 0.767 | 1.02 | 1.16 | 1.05 | 1.08 | 0.984
AUACUUCAAACAAUCGAUCUG [Fam1A.1 aminoacylation ribozyme variant] | 0.648 | 0.485 | 0.59 | 0.684 | 0.535 | 0.915
AUACUUCAAACGAUCGGUCUG [Fam1A.1 aminoacylation ribozyme variant] | 1.23 | 1.02 | 0.929 | 0.836 | 0.908 | 0.717
AUAGUUCAAACAAUCGGUCUG [Fam1A.1 aminoacylation ribozyme variant] | 3.06 | 0.94 | 0.822 | 0.94 | 0.827 | 4.05
AUCACCCUGGUCAUCGAUUGA [Fam2.1 aminoacylation ribozyme variant] | 1.35 | 1.19 | 1.02 | 1.14 | 1.18 | 0.66
AUCACCCUGGUCCUCGAGUGA [Fam2.1 aminoacylation ribozyme variant] | 7.28 | 8.29 | 4.54 | 4.01 | 6.62 | 51.6
AUGACCCUGGUAAUCGAGUGA [Fam2.1 aminoacylation ribozyme variant] | 6.37 | 5.39 | 2.8 | 2.7 | 5.08 | 23.9
AUGCAACUAGGUCAUCGGGUG [Fam2.2 aminoacylation ribozyme variant] | 8.26 | 9.82 | 5.58 | 6.38 | 8.13 | 56.2
AUGCACCGAGGUCAUCGGGUG [Fam2.2 aminoacylation ribozyme variant] | 6.46 | 6.58 | 3.66 | 3.81 | 5.79 | 40.4
AUGCACCUAGUUCAUCGGGUG [Fam2.2 aminoacylation ribozyme variant] | 4.29 | 3.07 | 2.37 | 2.77 | 2.73 | 13.6
AUGCAGCUAGGUCAUCGGGUG [Fam2.2 aminoacylation ribozyme variant] | 3.92 | 4.37 | 3.61 | 2.95 | 3.73 | 24.9
AUGGUUGCUAAUAGUCGCAAG [Fam3.1 aminoacylation ribozyme variant] | 1.53 | 1.3 | 1.44 | 1.43 | 1.02 | 1.79
